In PubChem BioAssay AID1347075 (National Center for Advancing Translational Sciences (NCATS), 2019):
About 5,500 (1.4%) of roughly 400,000 compounds were called active. Inconclusive results, whose numbers are uncertain, are shown with a selection of clear calls. Calls come from the whole dose curve; as a rule, active = well fitted cell-killing curve with a large enough effect; inconclusive = small, poorly fitted or top-dose-only effect, or effect the other way; inactive = flat fitted curve, though single readings scatter. Potencies beside an inconclusive call are fits to weak or partial responses and may not hold up.

Experiment: qHTS assay for MDR1-selective chemotherapeutics: Primary screen using the parental adenocarcinoma cell KB-3-1; note: nearly all actives have a fitted effect of over 60% in size
Conditions: KB-3-1 viability, CellTiter-Glo ATP luminescence, 72 h; activity change, negative = cytotoxic: at 46.1 µM (top of the series)
Summary of the method: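 Viability of parental KB-3-1 cells, measured by CellTiter-Glo luminescence, followed a 72 h incubation at 37 °C with pinned compounds in phenol-red-free DMEM containing 10% FBS.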
% is set by controls: 0 for no effect and ±100 for the full control effect; potency is the fitted concentration of half-maximal effect.

| SMILES | activity change, negative = cytotoxic | Potency |
| --- | --- | --- |
| C[C@@H]1CN([C@H](C)CO)C(=O)c2cc(Br)cnc2O[C@H]1CN(C)C(=O)Nc1ccccc1F | inactive: 19.8% |  |
| Nc1ccc(CC(N)c2csc(Nc3cc(Oc4ccccc4)ncn3)n2)cc1 (stereo unspecified) | inactive: -0.042% |  |
| CCOC(=S)SCC(=O)Nc1nc(-c2ccccc2)cs1 |  | active: 6.51 µM |
| CCOC(=O)C1CCN(C(=O)N2CCOCC2)CC1 | inactive: -4.9% |  |
| CC(CN1CCN(CCOCCO)CC1)CN1c2ccccc2Sc2ccc(Cl)cc21 (stereo unspecified) |  | inconclusive: 23.1 µM [cytotoxic, single point] |
| CC(C(=O)Nc1ccccn1)N1C(=O)c2ccccc2S1(=O)=O (stereo unspecified) | inactive: -1.62% |  |
| Cc1noc(C)c1COC(=O)c1cc(=O)[nH]c2ccccc12 |  | inconclusive: 8.2 µM [cytotoxic, partial curve] |
| COc1cc2c(NC3CCN(C)CC3)nc(N3CCN(C)CC3)nc2cc1OCCCN(C)C |  | inconclusive: 29.1 µM [cytotoxic, single point] |
| c1ccc(N=Nc2ccc3cccccc2-3)cc1 |  | inconclusive: 29.1 µM [cytotoxic, single point] |
| C=CCn1c(C)c(C(C)=O)c(N2CCCC2)nc1=S |  | inconclusive: 29.1 µM [cytotoxic, single point] |
| CC(=O)Nc1ccc(S(=O)(=O)N2CC(=O)NC(=O)C2)cc1 | inactive: 6.95% |  |
| O=c1[nH]c(Cc2cccs2)nc2scc(-c3ccc(Cl)cc3)c12 | inactive: -4.27% |  |
| COc1ccc(CNC(=O)C2=C(C)C(=O)OC23CCN(C(C)=O)CC3)cc1 | inactive: 10.9% |  |
| CCOC(=O)C1=C(C)N(c2ccc(Cl)cc2)C(=O)NC1c1cccc([N+](=O)[O-])c1 (stereo unspecified) |  | inconclusive: 20.6 µM [rising, partial curve, poor fit] |
| CCOC(=O)c1c(NC(=O)CSc2nnc(-c3c[nH]c4ccccc34)n2C)sc2c1CCCC2 |  | inconclusive: 23.1 µM [cytotoxic, single point] |
| Cc1cc(C)nc(NC(=O)c2cccc(Br)c2)n1 | inconclusive: 0.645% |  |
| Cc1ccc(-c2noc(C3CCN(C(=O)Nc4ccc(C#N)cc4)CC3)n2)o1 |  | inconclusive: 23.1 µM [cytotoxic, single point] |
| CCOc1ccccc1CNC(=O)c1ccc(Cn2c(SCc3ccccc3)nc3cccnc32)cc1 |  | inconclusive: 0.231 µM [cytotoxic, full curve] |
| N#CC1=C2SCC(O)(c3ccccc3)N2C(=O)CC1c1cccs1 (stereo unspecified) |  | active: 0.731 µM |
| COc1ccc2c(c1)c(/C=C/c1cc[n+](C)cc1)cn2C |  | active: 16.4 µM |
| CCc1ccc2nc(SCC(=O)N3CC(=O)Nc4ccccc43)c(C#N)cc2c1 |  | active: 5.17 µM |
| CN(C)S(=O)(=O)c1cccc(-c2cn3ccccc3n2)c1 | inactive: 2.59% |  |
| CCCCCCCCNCCS(=O)(=O)NCCCCCCCC | inactive: 2.59% |  |

Arranged by SMILES length (smallest number first): part of the list above

| SMILES | activity change, negative = cytotoxic | Potency |
| --- | --- | --- |
| c1ccc(N=Nc2ccc3cccccc2-3)cc1 |  | inconclusive: 29.1 µM [cytotoxic, single point] |
| C=CCn1c(C)c(C(C)=O)c(N2CCCC2)nc1=S |  | inconclusive: 29.1 µM [cytotoxic, single point] |
| Cc1noc(C)c1COC(=O)c1cc(=O)[nH]c2ccccc12 |  | inconclusive: 8.2 µM [cytotoxic, partial curve] |

Next part.

| SMILES | activity change, negative = cytotoxic | Potency |
| --- | --- | --- |
| CCNC(=O)NC(=O)C(C)OC(=O)c1ccc(-n2nc(SC)sc2=S)cc1 (stereo unspecified) |  | inconclusive: 23.1 µM [rising, single point] |
| CCC(C)(C)C1CCC2(CC1)NC(=O)N(CC(=O)NCCOc1ccccc1)C2=O (stereo unspecified) | inconclusive: -50.4% |  |
| Cc1csc(=O)n1CCC(=O)OCC(=O)N(CC(C)C)c1c(N)n(Cc2ccccc2)c(=O)[nH]c1=O |  | inconclusive: 0.0065 µM [cytotoxic, full curve] |
| C#CCNC(=O)C1=C[C@H](C)C[C@H](OCc2ccc(CO)cc2)O1 | inconclusive: 12.7% |  |
| COc1ccccc1NC(=O)N1CCCC1C(=O)NCC1CCCO1 (stereo unspecified) |  | inconclusive: 3.26 µM [cytotoxic, partial curve, poor fit] |
| CCn1c(C)c(C2=CCN(S(=O)(=O)c3ccc(C)cc3)CC2)c2ccccc21 |  | inconclusive: 14.6 µM [cytotoxic, partial curve, poor fit] |
| Cc1ccccc1-n1sc2cc(F)ccc2c1=O |  | inconclusive: 29.1 µM [cytotoxic, single point] |
| CC(Sc1ncnc2sc(-c3ccccc3)cc12)C(=O)NCC1CCCO1 (stereo unspecified) |  | inconclusive: 18.4 µM [cytotoxic, single point] |
| COc1ccc(NC(=O)c2ccco2)cc1NC(=O)C(C)Oc1ccc(Cl)cc1Cl (stereo unspecified) |  | inconclusive: 25.9 µM [cytotoxic, partial curve, poor fit] |
| O=C(COC(=O)CNC(=O)c1ccccc1F)NC1CC1 | inactive: 1.94% |  |
| CCCOc1ccc(/C=C/C(=O)Nc2sc3c(c2C(=O)OCC)CCC(C)C3)cc1OC (stereo unspecified) | inactive: -3.92% |  |
| COc1ccc(C(=O)C(C)OC(=O)CNC(=O)C2CCCCC2)cc1 (stereo unspecified) |  | inconclusive: 10.3 µM [rising, partial curve] |
| CC(=O)CC1c2cc(F)ccc2C=C(c2ccsc2)N1c1ccc(C#CC2(O)CCCCC2)cc1 (stereo unspecified) |  | inconclusive: 16.4 µM [cytotoxic, single point] |
| COc1ccc(N(CC(=O)Nc2cccc(N(C)S(C)(=O)=O)c2)S(=O)(=O)c2ccccc2)cc1Cl |  | inconclusive: 23.1 µM [cytotoxic, single point] |
| Cc1n(Cc2ccccc2)c2ccccc2[n+]1Cc1ccccc1 |  | active: 6.51 µM |
| CN(CC(=O)Nc1ccc(F)c(F)c1F)C(=O)c1cc(-c2ccncc2)nc2ccccc12 |  | inconclusive: 6.51 µM [rising, partial curve] |
| COc1ccccc1-n1cnc2cc(NCc3ccccn3)ccc21 |  | inconclusive: 29.1 µM [cytotoxic, single point] |
| CC(=O)N1CCC(=NNc2ccc(S(N)(=O)=O)cc2[N+](=O)[O-])CC1 | inconclusive: -56.8% |  |
| Cc1ccc(N(CC(=O)NCCSc2nc3ccccc3s2)S(=O)(=O)c2ccccc2)c(C)c1 |  | inconclusive: 29.1 µM [cytotoxic, single point] |
| NC(=O)c1ccc(NC(=O)CC23CC4CC(CC(Br)(C4)C2)C3)cc1 | inactive: -7% |  |
| Cc1c(C(=O)N(C)CCC#N)oc2ccc(S(=O)(=O)N3CC(C)CC(C)C3)cc12 (stereo unspecified) | inactive: 1.93% |  |
| COc1ccc(-c2cccc(NS(=O)(=O)c3cccs3)c2)nn1 | inactive: -2.4% |  |
| CN(CCc1ccccc1)C(=O)c1cccc(NC(=O)Cc2ccc([N+](=O)[O-])cc2)c1 |  | inconclusive: 18.4 µM [cytotoxic, single point] |
